PubChem BioAssay AID1259303 | Sanger Institute, 2017

Test: 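Which silenced kinases add to BYL719, cetuximab or trametinib effects in colorectal cancer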 (follow-up of hits)
System: human COLO320HSR colorectal cancer cells
Reagent: single siRNA against human genes
Treatment: anchor drug BYL719 (1 µM), cetuximab (5 µg/ml) or trametinib (10 nM), or DMSO vehicle alone
Measured: 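Synergy of each knock-down with BYL719 (1 µM), cetuximab (5 µg/ml) or trametinib (10 nM) versus drug alone, plus mean viability normalised to non-targeting pool 2 siRNA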
Direction: synergy score with BYL719: higher = stronger combined killing with BYL719; synergy score with cetuximab: higher = stronger combined killing with cetuximab; synergy score with trametinib: higher = stronger combined killing with trametinib; viability, siRNA alone (DMSO): higher = more viable cells
Hit rule: 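Called active if the synergy score tops 0.10 with BYL719, cetuximab or trametinib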
Calls: active = synergy with at least one drug; inactive = no synergy found
In all, the deposit lists 160 reagents; below is a random part of them. 11 of them (6.9%) count as active. 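Viability capped at 1; how the synergy score is calculated is not stated; four separate siRNAs target each gene.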 A number with no mark means an inactive call. Not stated in the record: the amount of reagent, the time to read-out.

The opening 2 entries as a preview:
gene symbol,PubChem SID,synergy score with BYL719,synergy score with cetuximab,synergy score with trametinib,"viability, siRNA alone (DMSO) (fraction of control)"
KCNH8,SID134236349,-0.102,-0.0395,0.0119,0.96
KCNH8,SID134236350,-0.0358,-0.00365,0.0379,0.604

The list itself, from the start:
gene symbol,PubChem SID,synergy score with BYL719,synergy score with cetuximab,synergy score with trametinib,"viability, siRNA alone (DMSO) (fraction of control)"
KCNH8,SID134236349,-0.102,-0.0395,0.0119,0.96
KCNH8,SID134236350,-0.0358,-0.00365,0.0379,0.604
KCNH8,SID134236351,-0.179,0,0,1
KCNH8,SID134236352,-0.019 (active),0.122,-0.0479,0.952
PIK3CA,SID56475149,-0.173,0.00987,-0.013,0.987
PIK3CA,SID56475150,-0.189,0.0631,-0.171,0.829
PIK3CA,SID135611211,-0.0115,-0.0493,-0.0493,0.951
PIK3CA,SID135611212,-0.161,-0.0101,-0.0175,0.982
CDK6,SID56475655,-0.197,0.0136,-0.216,0.784
CDK6,SID56475656,-0.212,-0.123,-0.387,0.613
CDK6,SID56475657,-0.126,-0.0505,-0.063,0.9
CDK6,SID56475658,-0.0796,-0.149,-0.174,0.826
CDKN2D,SID56475683,-0.0704,0.0742,-0.0868,0.912
CDKN2D,SID56475684,-0.0182,-0.00982,-0.00982,0.99
CDKN2D,SID56475686,-0.162,-0.113,-0.113,0.887
CDKN2D,SID135611272,0.0739,0.0304,-0.0263,0.657
PFKFB3,SID56477763,-0.129,-0.00304,-0.00304,0.997
PFKFB3,SID56477764,-0.178,-0.0369,-0.125,0.747
PFKFB3,SID56477765,-0.188,-0.0171,-0.0171,0.983
PFKFB3,SID135612150,-0.0658,0.0284,-0.0471,0.953
SF3B1,SID152148776,-0.206,-0.13,-0.173,0.308
SF3B1,SID152150545,-0.00338,0.017,-0.0113,0.37
SF3B1,SID152153930,0.00745,-0.11,0.0564,0.596
SF3B1,SID152156441,-0.0728,-0.0572,-0.061,0.3
MAP3K8,SID56475911,-0.178,0,0,1
MAP3K8,SID56475912,-0.237,-0.0457,-0.22,0.706
MAP3K8,SID56475913,-0.133,-0.0128,-0.102,0.898
MAP3K8,SID56475914,-0.0698,0.00696,0,1
BMPR2,SID56477247,-0.303,0,0,1
BMPR2,SID56477249,-0.247,0.0383,-0.107,0.893
BMPR2,SID56477250,-0.251,0,0,1
BMPR2,SID135611748,-0.165,0,0,1
CRIM1,SID134243173,-0.0536,-0.109,-0.129,0.871
CRIM1,SID134243174,-0.303,0.0691,0,1
CRIM1,SID134243175,0.125 (active),-0.0153,-0.0489,0.851
CRIM1,SID134243176,-0.0595,0.00712,-0.133,0.867
SYK,SID56475471,-0.104,-0.0771,-0.00846,0.528
SYK,SID56475472,-0.106 (active),0.118,-0.0607,0.865
SYK,SID56475473,0.0577,0.0367,0,1
SYK,SID56475474,-0.196,0,0,1
